Values quoted from earlier work in patent US7001619B2, “Hepatocurative effect of emblica officinalis against CYP 450 bio-activation hepatotoxicity of drugs” (Council of Scientific and Industrial Research, priority 2002, dated 2006).
At least one compound was matched to its structure with a doubt left.

Conditions: cited from earlier work

SMILES: O=C(/C=C/C=C/c1ccc2c(c1)OCO2)N1CCCCC1 [piperine]
- hepatoprotective (in words): not hepatoprotective
